Measurements reported in PubChem BioAssay AID1671195 (Yale University, 2021).
In all, the deposit lists about 22,000 reagents; this is an unselected part. About 1,510 of all reagents (6.9%) count as active. 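Active includes knockdowns raising or lowering LDL uptake; positive z-scores mean more uptake, negative mean less.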 Entries without a mark were called inactive.

- Test: 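Regulators of LDL receptor activity judged by labelled LDL uptake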 (primary screen)
- Cells: human Huh7 hepatoma cells
- Knock-down reagent: siRNA pool against human genes, 18 nM
- Timing: about 2 to 2.5 days of knockdown, then 8 h LDL uptake
- Conditions: DiI-labelled LDL at 30 µg/ml for 8 h, in lipoprotein-deficient serum medium
- Measurement: 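Per-cell DiI-LDL intensity by automated imaging; well means scaled to the plate median and given as a robust z-score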
- Scale: robust z-score: higher = more LDL uptake after knockdown
- Rule for the call: 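a gene counts as active if at least two replicate z-scores exceed ±2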

| gene knocked down | robust z-score, replicate 1 | robust z-score, replicate 2 | robust z-score, replicate 3 |
| --- | --- | --- | --- |
| ACO2 | 1.14 | 0.843 | 1.19 |
| SIPA1L1 | 0.709 | 1.29 | 1.2 |
| PPHLN1 | -0.671 | 0.719 | -0.654 |
| RPL10 | -2.07 | -0.211 | -1.79 |
| FLJ46875 | 0.0802 | -0.0501 | 0.0959 |
| NELFE | 0.0549 | 0.74 | 0.0105 |
| MRGPRX6P | 1.58 | 1.03 | 0.864 |
| LRRC36 | -0.79 | 0.398 | -0.748 |
| EN2 | -0.355 | -0.152 | -1.03 |
| ERP29 | -1.95 (active) | -0.663 | -2.28 |
| PLA2G6 | 0.896 | 1.21 | 0.731 |
| BCCIP | -0.592 | 0.734 | -1.24 |
| LINC00304 | 1.31 | 0.969 | 0.423 |
| LOC440273 (retired record) | -0.857 | -0.897 | -0.705 |
| C1QTNF9 | -0.267 | -0.0842 | -0.459 |
| ALG12 | 0.245 | 0.0152 | 0.197 |
| MFN1 | 0.252 | -0.443 | 0.222 |
| CTNS | -1.83 (active) | -1.93 | -2.31 |
| CCDC136 | 0.627 | 0.888 | -0.106 |
| COL7A1 | 1.08 | 1.02 | 1.03 |
| PRKD3 | -0.536 | -0.767 | -0.142 |
| ARL6IP4 | 0.411 | -0.186 | 1.35 |
| PABPC3 | -0.533 | 0.105 | -1.18 |
| SNAPC5 | -1.11 | -0.173 | -0.77 |
| TAAR2 | 0.54 | 0.223 | -0.425 |
| PHC1 | 1.5 | 0.526 | 1.05 |
| OPN1SW | 1.41 | 1.08 | 1.55 |
| DMTN | -1.14 | 0.629 | -1.01 |
| HOXC6 | -0.741 | 0.199 | 0.122 |
| HS6ST3 | 0.28 | -0.402 | 0.201 |
| IFIH1 | 0.318 | -0.185 | 0.122 |
| RAB3D | 0.0526 | -0.585 | -0.0114 |

A run of entries taken from the entries so far, for reference:
| gene knocked down | robust z-score, replicate 1 | robust z-score, replicate 2 | robust z-score, replicate 3 |
| --- | --- | --- | --- |
| ALG12 | 0.245 | 0.0152 | 0.197 |
| MFN1 | 0.252 | -0.443 | 0.222 |
| CTNS | -1.83 (active) | -1.93 | -2.31 |
| CCDC136 | 0.627 | 0.888 | -0.106 |
| COL7A1 | 1.08 | 1.02 | 1.03 |
| PRKD3 | -0.536 | -0.767 | -0.142 |
| ARL6IP4 | 0.411 | -0.186 | 1.35 |
| PABPC3 | -0.533 | 0.105 | -1.18 |
| SNAPC5 | -1.11 | -0.173 | -0.77 |
| TAAR2 | 0.54 | 0.223 | -0.425 |
| PHC1 | 1.5 | 0.526 | 1.05 |

The results go on.
| gene knocked down | robust z-score, replicate 1 | robust z-score, replicate 2 | robust z-score, replicate 3 |
| --- | --- | --- | --- |
| MAGEB17 | 1.57 | 1.08 | 0.803 |
| GSTM5P1 | 1.42 | -0.476 | -0.245 |
| RIC1 | 0.554 (active) | 2.18 | 2.45 |
| TMEM209 | -0.0602 | -0.517 | -0.512 |
| GNA14 | -0.947 | -0.693 | -0.788 |
| PIP | 0.00667 | -0.223 | -0.753 |
| LRRC41 | 2.03 (active) | 2.17 | 1.02 |
| NR6A1 | 0.465 | 1.1 | 0.777 |
| LOC402094 (retired record) | -0.455 | 0.185 | -0.255 |
| NAA20 | -1.16 | -1.22 | -1.16 |
| YES1 | 2.16 (active) | 2.61 | 2.74 |
| HAUS8 | -0.873 | -0.584 | -0.525 |
| SS18 | 2.14 | 1.5 | 1.17 |
| PKD2 | -0.716 | -0.837 | -0.225 |
| MGAT1 | 0.874 | 0.16 | 0.311 |
| PPIL2 | 0.606 | -0.339 | 0.73 |
| PPIAP58 | -0.232 | -0.919 | -1.22 |
| VN2R1P | 0.284 | 0.643 | -0.00787 |
| LOC440492 (retired record) | -0.404 | -0.681 | -0.546 |
| LOC440853 (retired record) | -3.46 | 1.28 | 1.34 |
| MAMLD1 | -1.26 | 0.00951 | -0.42 |
| DDX4 | -0.947 | -0.722 | -1.04 |
| ATXN2L | 0.22 | -0.356 | 1.37 |
| NAMPT | 3.64 (active) | 3.14 | 2.91 |
| KRTDAP | -0.0729 | -0.154 | 0.2 |
| TMEM74B | 0.543 | 0.809 | 0.0282 |
| TMOD4 | -1.72 | -2.64 | -1.89 |
| PRSS58 | 0.202 | 0.613 | -0.146 |
| TREML2 | 3.22 (active) | 2.86 | 3.25 |
| PHF11 | 1.23 | 0.807 | 1.03 |
| LOC400388 (retired record) | 1.72 (active) | 2.54 | 2.34 |
| ZNF22-AS1 | 0.493 | 0.455 | 0.537 |
| TRMT11 | -0.224 | 0.86 | -0.0192 |
| TMEM272 | -1.67 | -1.44 | -1.5 |
| TMA16 | 1.1 | 2.28 | 1.08 |
| SLC22A1 | -1.22 | -0.969 | -0.811 |
